According to the supplement of paper PMC10727501:
The list shows a part of the results. This data set is noisy: repeats of one test often differ as much as different tests do.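 Free-swimming zebrafish larvae were scored for O-bend response probability to dark flashes (naive: first five; training: remaining flashes of four 60-flash blocks; test: later 60-flash block) and for turning toward alternating leftward/rightward LED motion (OMR). Six treated larvae were compared with sixty 0.1% DMSO controls; |SSMD|≥2 defined a hit.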

Legend:
Conditions in all cases: 10 µM; pre-incubation: 30-90 min
[1] = tested on: Danio rerio larvae (5 dpf, TLF); test: OMR-Perf (SSMD vs DMSO vehicle); higher = higher than vehicle (e.g. higher dark-flash O-bend response probability, or better optomotor performance)
[2] = tested on: Danio rerio larvae (5 dpf, TLF); test: Prob-Test (SSMD vs DMSO vehicle); higher = higher than vehicle (e.g. higher dark-flash O-bend response probability, or better optomotor performance)
[3] = tested on: Danio rerio larvae (5 dpf, TLF); test: Prob-Naive (SSMD vs DMSO vehicle); higher = higher than vehicle (e.g. higher dark-flash O-bend response probability, or better optomotor performance)
[4] = tested on: Danio rerio larvae (5 dpf, TLF); test: Prob-Train (SSMD vs DMSO vehicle); higher = higher than vehicle (e.g. higher dark-flash O-bend response probability, or better optomotor performance)

Structure (SMILES)	OMR-Perf [1]	Prob-Test [2]	Prob-Naive [3]	Prob-Train [4]
C[C@@](Cc1ccc(O)c(O)c1)(NN)C(=O)O [Carbidopa]	-0.185	0.0557	-0.196	-0.118
CC(C)(Oc1ccc(C2CC2(Cl)Cl)cc1)C(=O)O (configuration not stated) [Ciprofibrate]	-0.178	-0.0526	-0.133	-0.383
O/C(=NCc1ccccc1)/CCNNC(=O)c1ccncc1 [Nialamide]	0.446	0.64	0.153	0.959
CCN(CC)CC#CCOC(=O)C(O)(c1ccccc1)C1CCCCC1.Cl (configuration not stated) [Oxybutynin chloride]	-0.0816	-0.96	-0.431	-1.7
C[C@@H]1c2cccc(O)c2C(=O)C2=C(O)[C@]3(O)C(=O)C(C(N)=O)=C(O)[C@H](N(C)C)[C@@H]3[C@H](O)[C@@H]21.Cl [Doxycycline HCl]	-0.798	-0.272	0	-0.328
O=P(O)(O)C(O)(Cc1cccnc1)P(=O)(O)O [Risedronic acid (Actonel)]	-0.444	-0.465	0.131	-0.0881
COc1ccc(C[C@@H]2c3cc(OC)c(OC)cc3CC[N@+]2(C)CCC(=O)OCCCCCOC(=O)CC[N@@+]2(C)CCc3cc(OC)c(OC)cc3[C@H]2Cc2ccc(OC)c(OC)c2)cc1OC.O=S(=O)([O-])c1ccccc1.O=S(=O)([O-])c1ccccc1 [Cisatracurium Besylate]	0.285	-0.00434	-0.217	0.645
C#C[C@]1(O)CC[C@H]2[C@@H]3CCC4=CC(=O)CC[C@@H]4[C@@H]3CC[C@@]21C [Norethindrone]	-0.467	-0.738	-1.01	-1.41

Among those listed so far, these have a carbonyl joined to an NH by a bond outside any ring.
Structure (SMILES)	OMR-Perf [1]	Prob-Test [2]	Prob-Naive [3]	Prob-Train [4]
O/C(=NCc1ccccc1)/CCNNC(=O)c1ccncc1 [Nialamide]	0.446	0.64	0.153	0.959
C[C@@H]1c2cccc(O)c2C(=O)C2=C(O)[C@]3(O)C(=O)C(C(N)=O)=C(O)[C@H](N(C)C)[C@@H]3[C@H](O)[C@@H]21.Cl [Doxycycline HCl]	-0.798	-0.272	0	-0.328
